No constants are given. Whether binding was seen depends on the method and setting. In cells and extracts the contact can be indirect. Some results given as binding are weak or reduced against the parent protein; the word gives no strength.

Sequences of proteins named here, by UniProt entry; tags and fusion partners are left off.
UniProt P19525: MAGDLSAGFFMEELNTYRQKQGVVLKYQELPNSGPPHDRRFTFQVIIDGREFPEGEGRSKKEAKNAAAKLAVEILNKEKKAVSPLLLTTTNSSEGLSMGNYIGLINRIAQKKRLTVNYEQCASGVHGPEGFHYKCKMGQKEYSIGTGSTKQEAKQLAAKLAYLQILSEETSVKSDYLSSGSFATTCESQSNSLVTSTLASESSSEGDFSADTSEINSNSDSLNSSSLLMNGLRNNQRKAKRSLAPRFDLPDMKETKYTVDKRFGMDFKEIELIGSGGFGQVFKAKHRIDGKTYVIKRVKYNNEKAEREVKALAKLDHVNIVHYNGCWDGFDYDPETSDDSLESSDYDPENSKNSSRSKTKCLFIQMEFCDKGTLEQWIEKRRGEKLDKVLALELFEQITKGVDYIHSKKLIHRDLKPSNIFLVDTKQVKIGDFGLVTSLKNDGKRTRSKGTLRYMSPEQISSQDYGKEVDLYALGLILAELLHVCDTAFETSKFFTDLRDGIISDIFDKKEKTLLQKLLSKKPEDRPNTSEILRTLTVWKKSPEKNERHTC
UniProt O94915: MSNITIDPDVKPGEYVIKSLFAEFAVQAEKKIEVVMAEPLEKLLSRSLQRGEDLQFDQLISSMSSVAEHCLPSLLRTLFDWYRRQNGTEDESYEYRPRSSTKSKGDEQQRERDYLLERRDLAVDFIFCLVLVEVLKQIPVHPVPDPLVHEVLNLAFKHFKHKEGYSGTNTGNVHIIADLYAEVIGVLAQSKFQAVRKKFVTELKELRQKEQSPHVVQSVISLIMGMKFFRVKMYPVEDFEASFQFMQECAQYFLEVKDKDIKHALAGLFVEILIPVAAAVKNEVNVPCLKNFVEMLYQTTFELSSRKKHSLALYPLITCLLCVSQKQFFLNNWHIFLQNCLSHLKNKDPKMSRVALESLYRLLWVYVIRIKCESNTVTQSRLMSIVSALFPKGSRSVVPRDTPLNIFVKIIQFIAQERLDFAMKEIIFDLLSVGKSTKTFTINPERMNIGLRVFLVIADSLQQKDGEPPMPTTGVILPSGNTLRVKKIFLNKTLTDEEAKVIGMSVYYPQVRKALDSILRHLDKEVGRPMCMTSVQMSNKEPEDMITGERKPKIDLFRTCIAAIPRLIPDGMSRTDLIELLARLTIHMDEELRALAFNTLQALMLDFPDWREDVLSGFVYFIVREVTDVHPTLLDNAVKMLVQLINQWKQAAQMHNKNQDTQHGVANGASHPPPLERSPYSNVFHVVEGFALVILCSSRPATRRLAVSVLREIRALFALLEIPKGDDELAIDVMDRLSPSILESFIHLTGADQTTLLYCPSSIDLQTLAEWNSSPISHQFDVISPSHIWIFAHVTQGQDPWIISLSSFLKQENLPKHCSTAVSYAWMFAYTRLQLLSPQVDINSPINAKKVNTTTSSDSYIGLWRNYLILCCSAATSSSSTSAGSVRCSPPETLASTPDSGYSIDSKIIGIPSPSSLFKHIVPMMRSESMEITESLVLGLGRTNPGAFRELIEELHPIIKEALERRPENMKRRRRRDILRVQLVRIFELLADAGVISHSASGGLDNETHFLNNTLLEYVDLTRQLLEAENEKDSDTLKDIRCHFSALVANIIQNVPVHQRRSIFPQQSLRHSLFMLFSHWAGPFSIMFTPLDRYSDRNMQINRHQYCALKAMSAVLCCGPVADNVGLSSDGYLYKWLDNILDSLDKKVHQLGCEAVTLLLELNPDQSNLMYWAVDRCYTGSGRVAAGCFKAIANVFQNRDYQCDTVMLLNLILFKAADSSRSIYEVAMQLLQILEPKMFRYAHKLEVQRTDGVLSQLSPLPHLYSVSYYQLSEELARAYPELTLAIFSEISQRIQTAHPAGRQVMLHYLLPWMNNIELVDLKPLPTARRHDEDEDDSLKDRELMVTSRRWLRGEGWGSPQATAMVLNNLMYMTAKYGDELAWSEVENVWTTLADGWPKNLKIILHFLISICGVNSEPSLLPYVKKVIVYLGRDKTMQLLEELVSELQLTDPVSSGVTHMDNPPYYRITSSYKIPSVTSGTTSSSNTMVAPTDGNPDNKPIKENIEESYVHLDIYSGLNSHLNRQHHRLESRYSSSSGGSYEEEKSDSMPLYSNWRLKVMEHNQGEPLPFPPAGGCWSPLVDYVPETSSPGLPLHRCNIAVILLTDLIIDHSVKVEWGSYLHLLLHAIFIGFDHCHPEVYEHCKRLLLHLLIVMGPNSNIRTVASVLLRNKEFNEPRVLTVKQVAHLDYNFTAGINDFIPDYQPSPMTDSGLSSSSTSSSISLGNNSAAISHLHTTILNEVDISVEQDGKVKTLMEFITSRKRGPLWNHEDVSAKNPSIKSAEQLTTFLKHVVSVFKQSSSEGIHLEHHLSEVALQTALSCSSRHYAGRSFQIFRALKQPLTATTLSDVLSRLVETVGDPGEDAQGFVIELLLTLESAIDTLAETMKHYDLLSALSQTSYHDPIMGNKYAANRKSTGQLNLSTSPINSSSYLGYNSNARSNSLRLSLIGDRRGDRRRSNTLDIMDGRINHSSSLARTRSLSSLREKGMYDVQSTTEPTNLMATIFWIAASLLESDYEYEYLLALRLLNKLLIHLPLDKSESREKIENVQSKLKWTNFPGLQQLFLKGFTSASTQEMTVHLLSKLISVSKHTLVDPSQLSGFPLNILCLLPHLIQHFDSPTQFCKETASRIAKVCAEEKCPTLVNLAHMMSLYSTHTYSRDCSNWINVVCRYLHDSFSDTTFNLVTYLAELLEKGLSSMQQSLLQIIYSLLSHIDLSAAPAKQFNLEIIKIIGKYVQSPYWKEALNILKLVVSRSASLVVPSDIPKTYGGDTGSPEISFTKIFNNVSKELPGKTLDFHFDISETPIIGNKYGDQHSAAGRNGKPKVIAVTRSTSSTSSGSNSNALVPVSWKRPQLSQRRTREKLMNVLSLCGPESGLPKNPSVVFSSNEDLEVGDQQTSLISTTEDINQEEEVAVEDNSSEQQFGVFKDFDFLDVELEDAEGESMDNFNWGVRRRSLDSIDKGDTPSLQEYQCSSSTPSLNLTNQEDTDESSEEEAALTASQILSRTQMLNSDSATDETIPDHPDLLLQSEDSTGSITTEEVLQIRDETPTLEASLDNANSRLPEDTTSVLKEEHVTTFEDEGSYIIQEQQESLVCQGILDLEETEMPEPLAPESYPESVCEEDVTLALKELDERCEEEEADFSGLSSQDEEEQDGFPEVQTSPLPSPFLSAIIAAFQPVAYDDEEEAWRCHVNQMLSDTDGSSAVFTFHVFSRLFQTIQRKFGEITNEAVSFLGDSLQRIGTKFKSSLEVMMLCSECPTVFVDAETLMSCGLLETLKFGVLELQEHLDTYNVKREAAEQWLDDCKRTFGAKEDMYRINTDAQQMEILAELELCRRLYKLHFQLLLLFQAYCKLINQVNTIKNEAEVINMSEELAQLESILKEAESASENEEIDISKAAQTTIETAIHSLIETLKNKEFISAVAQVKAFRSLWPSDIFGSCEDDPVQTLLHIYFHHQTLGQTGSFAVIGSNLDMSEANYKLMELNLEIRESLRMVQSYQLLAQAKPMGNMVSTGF

T1: NHLRC2 (NHL-repeat-containing protein 2) (human (endogenous in THP-1)) (UniProt Q8NBF2)
T1 sequence: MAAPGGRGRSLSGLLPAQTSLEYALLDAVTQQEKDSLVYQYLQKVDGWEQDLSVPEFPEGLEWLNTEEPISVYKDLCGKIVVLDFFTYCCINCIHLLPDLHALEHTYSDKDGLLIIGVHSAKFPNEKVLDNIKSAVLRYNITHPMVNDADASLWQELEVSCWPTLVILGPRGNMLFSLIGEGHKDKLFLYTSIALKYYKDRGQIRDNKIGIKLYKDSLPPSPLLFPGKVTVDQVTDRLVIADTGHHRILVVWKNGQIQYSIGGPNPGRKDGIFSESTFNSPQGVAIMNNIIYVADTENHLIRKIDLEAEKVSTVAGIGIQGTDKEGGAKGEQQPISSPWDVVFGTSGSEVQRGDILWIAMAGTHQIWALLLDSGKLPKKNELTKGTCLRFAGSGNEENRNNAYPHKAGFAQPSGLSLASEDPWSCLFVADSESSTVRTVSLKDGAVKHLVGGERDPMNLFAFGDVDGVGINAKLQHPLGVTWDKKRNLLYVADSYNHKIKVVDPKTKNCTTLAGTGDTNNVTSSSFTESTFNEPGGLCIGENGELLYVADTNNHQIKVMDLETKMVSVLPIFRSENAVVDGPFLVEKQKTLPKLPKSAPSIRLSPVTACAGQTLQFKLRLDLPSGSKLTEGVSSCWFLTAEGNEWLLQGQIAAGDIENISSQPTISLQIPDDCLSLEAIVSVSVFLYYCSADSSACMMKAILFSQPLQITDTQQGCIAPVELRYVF

B1: KLHL13 (Kelch like family member 13) (protein, UniProt Q9P2N7 1-655)
chain: MPLKWKTSSPAIWKFPVPVLKTSRSTPLSPAYISLVEEEDQHMKLSLGGSEMGLSSHLQSSKAGPTRIFTSNTHSSVVLQGFDQLRLEGLLCDVTLMPGDTDDAFPVHRVMMASASDYFKAMFTGGMKEQDLMCIKLHGVSKVGLRKIIDFIYTAKLSLNMDNLQDTLEAASFLQILPVLDFCKVFLISGVTLDNCVEVGRIANTYNLTEVDKYVNSFVLKNFPALLSTGEFLKLPFERLAFVLSSNSLKHCTELELFKATCRWLRLEEPRMDFAAKLMKNIRFPLMTPQELINYVQTVDFMRTDNTCVNLLLEASNYQMMPYMQPVMQSDRTAIRSDTTHLVTLGGVLRQQLVVSKELRMYDEKAHEWKSLAPMDAPRYQHGIAVIGNFLYVVGGQSNYDTKGKTAVDTVFRFDPRYNKWMQVASLNEKRTFFHLSALKGYLYAVGGRNAAGELPTVECYNPRTNEWTYVAKMSEPHYGHAGTVYGGVMYISGGITHDTFQKELMCFDPDTDKWIQKAPMTTVRGLHCMCTVGERLYVIGGNHFRGTSDYDDVLSCEYYSPILDQWTPIAAMLRGQSDVGVAVFENKIYVVGGYSWNNRCMVEIVQKYDPDKDEWHKVFDLPESLGGIRACTLTVFPPEETTPSPSRESPLSAP

The target of this assay is T1, NHLRC2 (NHL-repeat-containing protein 2) (human (endogenous in THP-1)). Description: co-IP; anti-NHLRC2 antibody (HPA038493) on nondenaturing THP-1 lysates, protein A magnetic beads, IgG antibody as control; partners detected by blot with their own antibodies and VeriBlot.
As to “EIF2AK2 (eukaryotic translation initiation factor 2 alpha kinase 2) (from UniProt P19525 1-551)”, the binding entry is “binds”. As to “FRYL (FRY like transcription coactivator) (from UniProt O94915 1-3013)”, the binding entry is reported as “binds”. For B1, the binding result was “binds”.
